Data taken from ChEMBL document CHEMBL3988442, “University of Dundee, Small-Polar-MMV Screening Library” (2021).

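Viability assay of Plasmodium falciparum sporozoites; the read-out is not stated. The concentration is filed as 10 mM, unlikely as a test dose, so the dose is not known. The record gives no direction; compounds that gave an IC50 in retests scored well above the rest, so higher reads as lower viability. Strong results were mostly tested again. Of about 34,000 compounds tested this way, about 280 (0.84%) reached 50% or more in at least one test.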

The filed quantity is “Percent Effect” (%). How 0% and 100% were set is not recorded. Most values in the screen are low, and negative values occur. The compounds are a random part of those screened. Two or more numbers in one place are separate tests of the same structure; such repeats can differ widely.

Compound,percent effect
CC(C)OCCCNC(=O)CSc1nnc(OC(C)C)s1,-12.76
[H][C@@]12C[C@@H](Oc3ccccc3)C[C@]1([H])CN(C(=O)c1cnn(CC)c1)C2,6.539
Cc1noc(C)c1CN(C)C(=O)NC1CCC(O)CC1 (stereo not drawn),15.21
O=C(COc1ccc(C(F)(F)F)cc1)NS(=O)(=O)c1cccnc1,-20.12
CN(C)CCN(C(=O)Cc1ccc2c(c1)OCCO2)C1CCN(C)CC1.O=C(O)CC(O)(CC(=O)O)C(=O)O,4.854
Cc1cnc(C(=O)N2CCCC(c3nccn3Cc3cscn3)C2)cn1 (stereo not drawn),-9.035
Cc1ccn(-c2ccc(C(=O)N3CCCC(n4ccnc4)C3)cc2)n1 (stereo not drawn),-0.2467
Cn1cc(CN2CCC[C@]3(C[C@H](Oc4ccccn4)CO3)C2)cn1,6.421
O=C(c1cc2c(s1)CCC2)N1CCC(c2ccncc2)CC1,2.623
Cl.O=C1CC2(CCNCC2)C(=O)N1c1cccc(F)c1,-4.641
CC(C)c1nc(CC(=O)N(C)Cc2ccc3c(c2)OCO3)cs1,-12.61
CN(Cc1cnn(C)c1)CC1CCCN1c1cccnn1 (stereo not drawn),3.912
CCC(=O)N1CCC(Cc2ccccc2-c2ccncc2)(C(N)=O)C1 (stereo not drawn),-14.19
Cc1ccsc1C(=O)N1CCC(O)(CN2CCc3ccccc3C2)C1 (stereo not drawn),-2.343
CN(C)c1cc(C2CCCN2)ccn1 (stereo not drawn),-0.6966
NC(=O)C1CCN(C(=O)NCc2csc(Br)c2)CC1,-4.379
CC(Cn1cccn1)NC(=O)NCc1cccnc1OC(C)C (stereo not drawn),5.849
Cc1ccsc1CNC(=O)c1ccc(N2CCNC2=O)cc1,-9.9
COCC(=O)N1CCCC(c2nc(N(C)C)ncc2-c2ccccc2)C1 (stereo not drawn),14.77
CC(NC(=O)NCCNc1ccccn1)c1cccs1 (stereo not drawn),-3.578
CC(C)CCN1CCNC(=O)C1CC(=O)N1CCc2sccc2C1 (stereo not drawn),-9.597
CCOC(=O)C1CC2(CCCC2)N2CCC(=O)N12 (stereo not drawn),-24.8
CN(C)S(=O)(=O)NCC1CCN(Cc2ccccc2F)CC1,-11.15 and -13.88
CCC(Oc1ccc(N(C)S(C)(=O)=O)cc1)C(N)=O (stereo not drawn),1.862
CCc1nc2n(n1)CC(NCc1cnn(-c3ccccc3)n1)CC2 (stereo not drawn),4.722
Cc1ccc2c(c1)C(N1CCOCC1)CC21CCNCC1 (stereo not drawn),2.47
Cc1nc(-c2ccsc2)sc1C(=O)N1CCn2c(C)nnc2C1,4.116
CC(CNS(N)(=O)=O)Oc1ccc(Cl)cc1 (stereo not drawn),-0.7667
N#Cc1c(F)cccc1N1CCN(S(=O)(=O)c2cccs2)CC1,2.479
CC1CCN(CCNC(=O)C(C)n2cncn2)CC1 (stereo not drawn),-1.706
Cc1cnn(CC2CCCCN2Cc2cc(C)on2)c1 (stereo not drawn),7.89
O=S1(=O)CCC(n2nc(COc3ccccc3)nc2-c2cnccn2)C1 (stereo not drawn),-10.96
CN(C)C(=O)N1Cc2ccccc2C2(CCNCC2)C1.Cl,25.49
CN(Cc1ccc(N(C)C)cc1)C(=O)c1cc2c([nH]c1=O)CCCC2=O,-10.28
[H][C@@]12COC[C@]1(COc1cccnc1)CN(C(=O)c1ncccn1)C2,5.429
CN1C(=O)CN(C(=O)c2ccc(=O)n(C)c2)c2ccccc21,6.114
NC(=O)C1CN(C(=O)C2(c3ccc(F)cc3F)CCCC2)CCO1 (stereo not drawn),3.195
NC(=O)C1CN(C(=O)Nc2ccccc2Oc2ccccc2Cl)CCO1 (stereo not drawn),4.308
Cc1ccc(CNCc2ccc(-n3nc(C)cc3C)nc2)cc1,7.749
CNc1cncc(C2CCCN2C(=O)c2ccc3c(c2)CCC3)n1 (stereo not drawn),5.523
CSCCCN1CCn2nc(CNC(C)=O)cc2C1,0.1181
O=C(O)C(F)(F)F.O=C(O)C(F)(F)F.[H][C@@]12CCN(Cc3ccsc3)C[C@@]1([H])O[C@@H](C(=O)Nc1cccnc1C)C2,8.249
Cc1noc(C)c1CNCC1CCCN1c1cccnn1 (stereo not drawn),-13.64
Cc1noc(C)c1CN1CCc2ncnc(-c3ccc(F)cc3)c2CC1.O=C(O)C(F)(F)F,12.4
Cc1cc(C(=O)N2CCCC2c2noc(C)n2)[nH]n1 (stereo not drawn),7.757
CN(Cc1cnn(C)c1)C(=O)c1ccc(=O)n(C)n1,-18.6
CN(Cc1cccs1)c1nc2c(cnn2C(C)(C)C)c(=O)[nH]1,-1.669

Once more, the final 5:

Cc1noc(C)c1CNCC1CCCN1c1cccnn1 (stereo not drawn) read -13.64%.
Cc1noc(C)c1CN1CCc2ncnc(-c3ccc(F)cc3)c2CC1.O=C(O)C(F)(F)F read 12.4%.
Cc1cc(C(=O)N2CCCC2c2noc(C)n2)[nH]n1 (stereo not drawn) read 7.757%.
CN(Cc1cnn(C)c1)C(=O)c1ccc(=O)n(C)n1 read -18.6%.
CN(Cc1cccs1)c1nc2c(cnn2C(C)(C)C)c(=O)[nH]1 read -1.669%.